Laboratory results reported in article PMC7695847, “The structural basis of promiscuity in small multidrug resistance transporters” (Nature Communications, 2020).

Test system: T1, Gdx-Clo
T1 construct: gene HMPREF1982_00479; full-length; C-terminal His6 tag with LysC site, tag cleaved by LysC; expressed in E. coli C41(DE3); antiparallel homodimer
Assay: X-ray crystal structure of complex
Assay type: binding, Clostridiales bacterium oral taxon 876
Settings: co-crystallised with monobody Clo-L10

Row | Structure (SMILES) | X-ray crystal structure of complex (pH 7.5, near E13B, tail in TM2 membrane portal) | X-ray crystal structure of complex (2.5 Å, pH 8.8, near E13, also a transported substrate)
1 | CCCCCCCCNC(=N)N [octylGdm^+] | we solved a structure of Gdx-Clo in complex with octylGdm^+ | –
2 | N=C(N)Nc1ccccc1 [phenylGdm^+] | – | we solved a structure of the Gdx-Clo/L10 monobody complex together with a non-natural transported substrate, phenylGdm^+
